From publication PMC12670160, “A drug-repurposing screen of FDA- and EMA-approved drugs identifies two NF-κB inhibitors active against eumycetoma” (Journal of Antimicrobial Chemotherapy, 2025)
Where a name gives a salt, the structure may show the parent alone. Read-outs that look alike come from different tables or passages of the source. In all, about 5,300 compounds went through this assay and about 130 (2.5%) showed an effect of 50% or more. This is one part of the list. Numbered stars: 1 amine (or outer) side, 2 acyl side, 3 side chain; on linkers, the order of the positions; unused ones are H or OH. Bridge positions count the residues as written; N and C are the ends. Square brackets hold non-standard residues; d marks the D form. Peptide text beside a SMILES is read from it. * marks the point of attachment. ξ: configuration not given here. pTerphenylCO(4''-OnC5H11) = CCCCCOc1ccc(-c2ccc(-c3ccc(C(=O)*)cc3)cc2)cc1; ξOrn(4,5-diOH) = O=C(C(CC(O)C(O)N[*:3])N[*:1])[*:2]; ξhTyr(βξ-OH,γξ-OH) = NC(C(=O)O)C(O)C(O)c1ccc(O)cc1; ξPro(3ξ-OH,4ξ-Me) = CC1CNC(C(=O)O)C1O; Hyp = O=C(O)[CH]1C[CH](O)CN1

System: M. mycetomatis strain mm55
Settings: primary screen, metabolic activity vs growth control, 96 h, 2 µM, inhibitor

SMILES	% viability [%]	% viability (Madurella mycetomatis metabolic activity at 2µM (%)) [%]
O=C(NN1C(=O)[C@@H]2[C@@H]3C=C[C@@H]([C@H]4C[C@@H]34)[C@@H]2C1=O)c1ccc(C(F)(F)F)cc1 [ONC0001041, tecovirimat]	87.54	–
C[C@H](Cc1ccc2c(c1)OC(C(=O)O)(C(=O)O)O2)NC[C@H](O)c1cccc(Cl)c1 [ONC0001625, cl316243]	75.29	–
CC(C)c1nc(N(C)S(C)(=O)=O)nc(-c2ccc(F)cc2)c1/C=C/[C@@H](O)C[C@@H](O)CC(=O)O [ONC0004242, rosuvastatin calcium]	62.66	–
CCCCCOc1ccc(-c2ccc(-c3ccc(C(=O)N[C@H]4C[C@@H](O)[C@@H](O)NC(=O)[C@@H]5[C@@H](O)[C@@H](C)CN5C(=O)[C@H]([C@@H](C)O)NC(=O)[C@H]([C@H](O)[C@@H](O)c5ccc(O)cc5)NC(=O)[C@@H]5C[C@@H](O)CN5C(=O)[C@H]([C@@H](C)O)NC4=O)cc3)cc2)cc1 [ONC0002234, anidulafungin] ({pTerphenylCO(4''-OnC5H11)}-[ξOrn(4,5-diOH)]T[Hyp][ξhTyr(βξ-OH,γξ-OH)]T[ξPro(3ξ-OH,4ξ-Me)]; lactam 1-C; configuration not given here)	182.3	–
C=C(CC)C(=O)c1ccc(OCC(=O)O)c(Cl)c1Cl [ONC0000717, ethacrynic acid]	74.67	–
CC1(C)N=C(N)N=C(N)N1OCCCOc1cc(Cl)c(Cl)cc1Cl [ONC0002794, wr99210]	76.68	–
Nc1ccc(S(=O)(=O)NC(=O)c2ccccc2)cc1 [ONC0000484, sulfabenzamide]	67.23	–
CCOc1ccc(NC(=S)N2CCC(C(O)(c3ccccc3)c3ccccc3)CC2)cc1 [ONC0001806, sf11]	103.2	–
C[C@]12C=CC(=O)C=C1CCC1C2[C@@H](O)C[C@@]2(C)C1CC[C@]2(O)C(=O)COP(=O)(O)O (stereo partly shown) [ONC0004116, prednisolone sodium phosphate]	116.3	–
CCCOC(C(=O)OC1CCN(C)CC1)(c1ccccc1)c1ccccc1 [ONC0000299, propiverine hydrochloride]	62.95	–
CCOCCn1c(C2CCN(CCc3ccc(C(C)(C)C(=O)O)cc3)CC2)nc2ccccc21 [ONC0001779, bilastine]	116.8	–
CC(CN(C)C)CN1c2ccccc2Sc2ccccc21 (stereo not shown) [ONC0003228, trimeprazine tartrate]	–	94.09
CCOC(=O)COc1ccc2c(c1)C[C@@H](NC[C@H](O)c1cccc(Cl)c1)CC2 [ONC0005593, amibegron]	93.46	–
C[C@@H](O)[C@H]1C(=O)N2C(C(=O)O)=C(S[C@@H]3CN[C@H](C(=O)Nc4cccc(C(=O)O)c4)C3)[C@H](C)[C@H]12 [ONC0003353, ertapenem sodium]	77.23	–
CCN(CC)CCCC(C)Nc1ccnc2cc(Cl)ccc12 (stereo not shown) [ONC0000750, chloroquine diphosphate]	85.47	–
CS(=O)(=O)c1ccc([C@@H](O)[C@@H](CF)NC(=O)C(Cl)Cl)cc1 [ONC0004043, florfenicol]	70.41	–
Cc1nc(Cn2cnc3c2c(=O)n(C)c(=O)n3C)no1 [ONC0005579, ch170]	82.49	–
CN1C(C(=O)Nc2ccccn2)C(=O)c2sccc2S1(=O)=O (stereo not shown) [ONC0002886, tenoxicam]	126.3	–
C[C@](N)(Cc1ccc(O)cc1)C(=O)O [ONC0003723, metirosine]	99.2	–
[N-]=[N+]=N[C@]1(CO)O[C@@H](n2ccc(N)nc2=O)[C@H](O)[C@@H]1O [ONC0001768, r1479]	81.29	–

SMILES	% viability [%]	% viability (Madurella mycetomatis metabolic activity at 2µM (%)) [%]
CNC(=O)c1c(-c2ccc(F)cc2)oc2cc(N(CCO)S(C)(=O)=O)c(C3CC3)cc12 [ONC0002076, nesbuvir]	52.04	–
CC(C)=CCC[C@](C)(O)[C@H]1CC[C@]2(C)[C@@H]1[C@H](O)C[C@@H]1[C@@]3(C)CC[C@H](O[C@@H]4O[C@H](CO)[C@@H](O)[C@H](O)[C@H]4O[C@@H]4O[C@H](CO)[C@@H](O)[C@H](O)[C@H]4O)C(C)(C)[C@@H]3CC[C@]12C [ONC0002001, ginsenoside rg3]	88.93	–
O=C(COc1cccc2c(=O)[nH]ccc12)c1ccccc1 [ONC0000914, upf1069]	64.66	–
Cc1cccc(C)c1NC(=O)c1ccccc1C(=O)O [ONC0004248, ftaxilide]	85.25	–
O=C(O)Cn1c(C(=O)Nc2nc(-c3ccccc3Cl)cs2)cc2ccccc21 [ONC0002717, sr27897]	83.69	–
c1ccc2c(c1)CCCC2C1=NCCN1 (stereo not shown) [ONC0000596, tetrahydrozoline hydrochloride]	80.8	–
COc1cccc(CCc2ccccc2OCC(CN(C)C)OC(=O)CCC(=O)O)c1 (stereo not shown) [ONC0000984, sarpogrelate hydrochloride]	88.58	–
O=C(O[C@@H]1C[C@@H]2C[C@@H]3C[C@H](C1)N2CC3=O)c1c[nH]c2ccccc12 [ONC0005492, dolasetron]	77.8	–
CC(C)[C@H](O)C(=O)N[C@@H](C)C(=O)N[C@H]1C(=O)N(C)CCc2ccccc21 [ONC0004859, semagacestat ly450139]	106.7	–
CCCCN1C[C@H](O)[C@@H](O)[C@H](O)[C@H]1CO [ONC0005490, miglustat nbutyldeoxynojirimycinhcl]	110.7	–
OC(CNc1ccccc1)Cn1c2ccc(Br)cc2c2cc(Br)ccc21 (stereo not shown) [ONC0001560, p7c3]	95.43	–
N[C@@H](CC(=O)O)C(=O)O [ONC0005584, lasparticacid]	67.27	–
CC(C)NC(=O)COc1cccc(-c2nc(Nc3ccc4[nH]ncc4c3)c3ccccc3n2)c1 [ONC0001882, slx2119]	46.69	–
Cc1ncc([N+](=O)[O-])n1C [ONC0005324, dimetridazole]	129	–
CNc1ncnc2c1ncn2[C@@H]1O[C@H](CO)[C@@H](O)[C@H]1O [ONC0004528, n6methyladenosine m6a]	76.1	–
O=C(c1ccc(F)cc1)C1CCN(CCCCc2ccccc2)CC1 [ONC0002480, 44fluorobenzoyl14phenylbutylpiperidine]	58.97	–
CC(C)(C)C(=O)OCOC(=O)[C@@H]1N2C(=O)[C@@H](/N=C/N3CCCCCC3)[C@H]2SC1(C)C [ONC0000998, pivmecillinam hydrochloride]	95.26	–
CCCCCN(C)CCC(O)(P(=O)(O)O)P(=O)(O)O [ONC0004236, ibandronate sodium]	67.1	–
O=C1NCCN1c1ncc([N+](=O)[O-])s1 [ONC0002372, niridazole]	81.15	–
C1N2CN3CN1CN(C2)C3 [ONC0002802, methenamine mandelamine]	129.4	–

SMILES	% viability [%]	% viability (Madurella mycetomatis metabolic activity at 2µM (%)) [%]
O=c1ccc2cc3ccoc3cc2o1 [ONC0003846, psoralen ficusin]	67.57	–
N[C@H](C(=O)O)c1ccc(C(=O)O)c(C(=O)O)c1 [ONC0000847, 34dcpgs]	58.51	–
N[C@@H](CS)C(=O)O [ONC0002161, lcysteine]	94.42	–
NC(N)=Nc1nc(CSCCC(N)=NS(N)(=O)=O)cs1 [ONC0003248, famotidine]	89.34	–
Nc1nnc(Sc2ncc([N+](=O)[O-])s2)s1 [ONC0004235, su3327]	89.26	–
C=C(C)[C@@H]1CC[C@]2(C(=O)O)CC[C@]3(C)[C@H](CC[C@@H]4[C@@]5(C)CC[C@H](O)C(C)(C)[C@@H]5CC[C@]43C)[C@@H]12 [ONC0005112, betulinic acid]	73.76	–
COc1cc(-n2cnc3cc(-c4ccc(Cl)cc4)sc3c2=O)ccc1OCCN1CCCC1 [ONC0002718, gw803430]	74.36	–
CCn1cc(C(=O)O)c(=O)c2cc(F)c(N3CCNCC3)nc21 [ONC0002842, enoxacin]	91.4	–
CCCCCCCCC(=O)N[C@H](CN1CCCC1)[C@H](O)c1ccc2c(c1)OCCO2 [ONC0001045, genz123346 free base]	78.97	–
CC(=O)OCC(=O)NCCCOc1cccc(CN2CCCCC2)c1 [ONC0004294, roxatidine acetate hydrochloride]	65.07	–
C[C@H](NCc1ccc(OCc2cccc(F)c2)cc1)C(N)=O [ONC0004903, safinamide mesylate fce28073]	91.48	–
CN1C(=O)COc2c(C(=O)NC3CN4CCC3CC4)cc(Cl)cc21 (stereo not shown) [ONC0004557, azasetron hcl]	67.31	–
O=c1ccc2c(OCCCCOc3ccccc3)c3ccoc3cc2o1 [ONC0000770, pap1]	62.21	–
O=CN1CCC(C(=O)NCCN2CCC(=C3c4ccccc4C=Cc4ccccc43)CC2)CC1 [ONC0001856, at1015]	84.57	–
O=C1CCC[C@@H]2[C@@H]3CCCN4CCC[C@H](CN12)[C@@H]34 [ONC0004745, matrine matrine]	117	–
O=C1OC(c2ccc(O)cc2)(c2ccc(O)cc2)c2ccccc21 [ONC0000601, phenolphthalein]	78.25	–
COc1cc(C(=S)N2CCOCC2)ccc1O [ONC0004297, vanitiolide]	83.35	–
C[C@H](N)Cn1ccc2cc(F)c(Cl)cc21 [ONC0001710, ro600175 fumarate]	62.47	–
